Assay results taken from the supplement of paper PMC10849652.
The list shows a part of the results.

The chains behind the UniProt entries cited, without tags or fusion partners. Where a name states a change or a piece, a line headed by the entry shows the natural chain unless it says otherwise.
UniProt Q03013: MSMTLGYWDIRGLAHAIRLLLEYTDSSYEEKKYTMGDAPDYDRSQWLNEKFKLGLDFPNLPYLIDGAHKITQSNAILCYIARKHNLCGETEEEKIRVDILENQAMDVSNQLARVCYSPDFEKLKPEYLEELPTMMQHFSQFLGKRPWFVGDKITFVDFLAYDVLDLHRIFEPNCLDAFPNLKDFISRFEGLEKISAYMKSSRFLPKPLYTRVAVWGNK
UniProt Q9H0R4: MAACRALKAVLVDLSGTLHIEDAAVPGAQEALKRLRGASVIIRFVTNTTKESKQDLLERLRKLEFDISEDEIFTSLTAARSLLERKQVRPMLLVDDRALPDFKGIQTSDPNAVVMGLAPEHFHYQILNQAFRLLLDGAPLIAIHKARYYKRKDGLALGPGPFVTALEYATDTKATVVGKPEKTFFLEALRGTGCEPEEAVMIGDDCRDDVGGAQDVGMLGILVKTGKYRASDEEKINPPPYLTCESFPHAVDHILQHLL
UniProt P29083: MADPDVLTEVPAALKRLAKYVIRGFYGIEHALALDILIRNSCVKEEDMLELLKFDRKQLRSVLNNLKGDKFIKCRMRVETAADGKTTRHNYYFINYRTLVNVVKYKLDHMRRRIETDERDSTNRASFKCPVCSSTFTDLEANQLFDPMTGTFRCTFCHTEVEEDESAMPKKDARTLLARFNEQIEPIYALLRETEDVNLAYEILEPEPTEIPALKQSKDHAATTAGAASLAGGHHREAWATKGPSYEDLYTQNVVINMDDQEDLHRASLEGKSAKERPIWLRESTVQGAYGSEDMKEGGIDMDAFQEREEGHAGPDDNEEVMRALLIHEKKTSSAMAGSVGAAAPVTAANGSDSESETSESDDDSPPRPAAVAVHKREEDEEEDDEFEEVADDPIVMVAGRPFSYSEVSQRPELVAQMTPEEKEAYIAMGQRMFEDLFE
UniProt P09105: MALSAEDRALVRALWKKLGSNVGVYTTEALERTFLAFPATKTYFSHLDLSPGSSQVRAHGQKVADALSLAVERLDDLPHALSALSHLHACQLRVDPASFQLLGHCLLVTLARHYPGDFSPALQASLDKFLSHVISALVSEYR
UniProt P02008: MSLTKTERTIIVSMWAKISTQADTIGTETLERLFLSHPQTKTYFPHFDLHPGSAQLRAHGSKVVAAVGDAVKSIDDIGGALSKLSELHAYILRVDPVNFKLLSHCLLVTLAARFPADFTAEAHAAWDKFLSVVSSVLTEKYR
UniProt Q92769, whole entry, looked up: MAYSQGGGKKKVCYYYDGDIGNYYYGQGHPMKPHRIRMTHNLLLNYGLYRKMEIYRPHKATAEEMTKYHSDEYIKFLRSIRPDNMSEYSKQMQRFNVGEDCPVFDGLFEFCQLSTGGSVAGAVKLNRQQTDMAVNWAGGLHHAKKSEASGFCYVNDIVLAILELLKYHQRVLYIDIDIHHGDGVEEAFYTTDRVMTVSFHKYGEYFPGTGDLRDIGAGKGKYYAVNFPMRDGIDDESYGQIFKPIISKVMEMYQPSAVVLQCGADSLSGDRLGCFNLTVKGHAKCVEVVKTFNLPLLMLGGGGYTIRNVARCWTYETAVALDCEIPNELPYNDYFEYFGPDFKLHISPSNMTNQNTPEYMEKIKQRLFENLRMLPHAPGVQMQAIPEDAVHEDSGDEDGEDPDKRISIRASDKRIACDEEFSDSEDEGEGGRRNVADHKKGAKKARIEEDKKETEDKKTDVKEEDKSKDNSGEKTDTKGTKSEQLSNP
UniProt Q13889: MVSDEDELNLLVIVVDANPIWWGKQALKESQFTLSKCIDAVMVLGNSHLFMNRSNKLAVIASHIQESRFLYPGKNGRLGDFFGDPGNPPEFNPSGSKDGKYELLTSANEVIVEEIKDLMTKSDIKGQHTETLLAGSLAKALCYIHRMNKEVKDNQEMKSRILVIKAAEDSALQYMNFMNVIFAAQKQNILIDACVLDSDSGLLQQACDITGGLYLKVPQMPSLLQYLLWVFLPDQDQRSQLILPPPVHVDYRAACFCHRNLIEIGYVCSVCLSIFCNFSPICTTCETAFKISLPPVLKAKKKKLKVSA
UniProt P42694: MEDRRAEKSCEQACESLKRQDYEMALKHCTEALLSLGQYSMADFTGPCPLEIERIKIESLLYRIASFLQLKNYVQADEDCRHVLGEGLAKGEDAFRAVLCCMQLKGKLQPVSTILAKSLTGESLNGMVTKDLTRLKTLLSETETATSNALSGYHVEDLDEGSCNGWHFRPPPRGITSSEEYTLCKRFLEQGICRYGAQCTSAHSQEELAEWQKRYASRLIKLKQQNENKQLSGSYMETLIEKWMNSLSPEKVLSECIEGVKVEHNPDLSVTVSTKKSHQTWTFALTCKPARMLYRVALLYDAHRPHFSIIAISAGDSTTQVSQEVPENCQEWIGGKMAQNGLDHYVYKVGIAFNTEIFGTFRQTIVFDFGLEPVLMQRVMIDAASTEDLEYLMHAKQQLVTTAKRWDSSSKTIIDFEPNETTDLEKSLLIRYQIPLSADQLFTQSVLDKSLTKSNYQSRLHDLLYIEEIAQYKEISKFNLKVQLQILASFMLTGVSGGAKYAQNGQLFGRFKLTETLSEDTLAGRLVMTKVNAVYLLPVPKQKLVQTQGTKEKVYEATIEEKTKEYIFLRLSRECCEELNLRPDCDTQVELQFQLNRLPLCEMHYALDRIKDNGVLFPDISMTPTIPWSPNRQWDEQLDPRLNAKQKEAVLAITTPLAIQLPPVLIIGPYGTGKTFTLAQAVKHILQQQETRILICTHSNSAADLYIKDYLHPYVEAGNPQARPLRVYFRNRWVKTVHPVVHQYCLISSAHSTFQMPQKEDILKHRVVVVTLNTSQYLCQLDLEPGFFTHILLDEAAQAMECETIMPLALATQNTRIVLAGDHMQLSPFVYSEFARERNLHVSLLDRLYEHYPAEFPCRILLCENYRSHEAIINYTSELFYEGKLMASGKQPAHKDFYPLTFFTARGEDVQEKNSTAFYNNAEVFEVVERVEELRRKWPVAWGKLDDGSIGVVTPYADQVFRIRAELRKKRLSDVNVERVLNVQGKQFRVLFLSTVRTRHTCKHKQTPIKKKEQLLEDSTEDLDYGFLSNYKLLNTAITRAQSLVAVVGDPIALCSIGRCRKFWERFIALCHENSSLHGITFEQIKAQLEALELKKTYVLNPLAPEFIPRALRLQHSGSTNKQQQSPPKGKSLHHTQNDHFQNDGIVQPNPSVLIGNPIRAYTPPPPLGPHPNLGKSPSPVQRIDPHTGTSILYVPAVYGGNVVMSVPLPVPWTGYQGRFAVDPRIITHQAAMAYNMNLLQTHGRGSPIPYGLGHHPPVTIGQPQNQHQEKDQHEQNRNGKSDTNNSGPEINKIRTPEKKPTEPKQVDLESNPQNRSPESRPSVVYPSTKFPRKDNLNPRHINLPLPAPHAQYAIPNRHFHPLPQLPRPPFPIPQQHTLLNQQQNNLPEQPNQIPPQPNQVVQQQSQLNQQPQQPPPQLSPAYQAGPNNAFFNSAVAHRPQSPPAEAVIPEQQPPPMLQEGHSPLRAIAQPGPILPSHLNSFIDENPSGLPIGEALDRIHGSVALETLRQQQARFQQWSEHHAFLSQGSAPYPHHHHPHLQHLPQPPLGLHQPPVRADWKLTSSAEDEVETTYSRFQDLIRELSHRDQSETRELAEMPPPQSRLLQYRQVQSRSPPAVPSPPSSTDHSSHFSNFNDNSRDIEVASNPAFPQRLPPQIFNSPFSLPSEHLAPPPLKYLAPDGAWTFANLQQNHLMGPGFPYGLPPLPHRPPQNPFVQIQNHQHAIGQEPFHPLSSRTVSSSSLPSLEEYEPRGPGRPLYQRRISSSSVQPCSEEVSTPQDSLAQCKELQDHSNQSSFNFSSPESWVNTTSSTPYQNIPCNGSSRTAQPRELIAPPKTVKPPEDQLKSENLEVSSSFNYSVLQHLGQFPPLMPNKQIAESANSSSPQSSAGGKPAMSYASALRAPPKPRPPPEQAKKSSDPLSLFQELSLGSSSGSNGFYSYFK
UniProt Q8NEC7: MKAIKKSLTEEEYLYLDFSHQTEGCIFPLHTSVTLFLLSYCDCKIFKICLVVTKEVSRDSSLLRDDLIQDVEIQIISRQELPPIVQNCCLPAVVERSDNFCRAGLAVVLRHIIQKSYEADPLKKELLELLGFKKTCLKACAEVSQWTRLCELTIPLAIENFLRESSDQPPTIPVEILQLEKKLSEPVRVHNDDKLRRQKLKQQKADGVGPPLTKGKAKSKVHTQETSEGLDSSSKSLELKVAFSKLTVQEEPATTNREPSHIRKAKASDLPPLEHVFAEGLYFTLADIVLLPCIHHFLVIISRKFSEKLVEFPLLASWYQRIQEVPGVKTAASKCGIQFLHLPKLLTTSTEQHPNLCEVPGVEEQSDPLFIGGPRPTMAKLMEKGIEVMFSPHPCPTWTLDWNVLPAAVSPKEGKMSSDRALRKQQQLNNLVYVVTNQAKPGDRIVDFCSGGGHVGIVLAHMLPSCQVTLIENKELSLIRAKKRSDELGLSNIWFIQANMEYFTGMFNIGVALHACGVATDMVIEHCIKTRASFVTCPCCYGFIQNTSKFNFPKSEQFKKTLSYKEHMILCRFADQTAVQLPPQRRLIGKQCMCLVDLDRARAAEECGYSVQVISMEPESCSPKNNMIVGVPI
UniProt O94927: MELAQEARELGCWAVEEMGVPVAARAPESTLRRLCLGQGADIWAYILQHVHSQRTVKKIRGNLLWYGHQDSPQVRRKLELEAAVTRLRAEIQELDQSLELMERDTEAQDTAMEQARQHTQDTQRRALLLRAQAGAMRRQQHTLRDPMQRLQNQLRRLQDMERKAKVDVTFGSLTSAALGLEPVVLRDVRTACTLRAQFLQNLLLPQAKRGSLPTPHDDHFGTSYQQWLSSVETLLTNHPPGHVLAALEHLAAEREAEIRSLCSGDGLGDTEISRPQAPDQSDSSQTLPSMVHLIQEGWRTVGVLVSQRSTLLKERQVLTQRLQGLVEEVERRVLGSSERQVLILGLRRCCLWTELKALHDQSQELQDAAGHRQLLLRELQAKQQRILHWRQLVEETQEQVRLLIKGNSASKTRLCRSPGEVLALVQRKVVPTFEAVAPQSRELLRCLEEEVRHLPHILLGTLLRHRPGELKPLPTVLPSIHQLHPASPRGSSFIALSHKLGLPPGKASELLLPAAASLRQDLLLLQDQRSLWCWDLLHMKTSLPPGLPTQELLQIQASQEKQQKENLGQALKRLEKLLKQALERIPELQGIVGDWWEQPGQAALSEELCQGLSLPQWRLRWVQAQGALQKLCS
UniProt Q9Y5Q8: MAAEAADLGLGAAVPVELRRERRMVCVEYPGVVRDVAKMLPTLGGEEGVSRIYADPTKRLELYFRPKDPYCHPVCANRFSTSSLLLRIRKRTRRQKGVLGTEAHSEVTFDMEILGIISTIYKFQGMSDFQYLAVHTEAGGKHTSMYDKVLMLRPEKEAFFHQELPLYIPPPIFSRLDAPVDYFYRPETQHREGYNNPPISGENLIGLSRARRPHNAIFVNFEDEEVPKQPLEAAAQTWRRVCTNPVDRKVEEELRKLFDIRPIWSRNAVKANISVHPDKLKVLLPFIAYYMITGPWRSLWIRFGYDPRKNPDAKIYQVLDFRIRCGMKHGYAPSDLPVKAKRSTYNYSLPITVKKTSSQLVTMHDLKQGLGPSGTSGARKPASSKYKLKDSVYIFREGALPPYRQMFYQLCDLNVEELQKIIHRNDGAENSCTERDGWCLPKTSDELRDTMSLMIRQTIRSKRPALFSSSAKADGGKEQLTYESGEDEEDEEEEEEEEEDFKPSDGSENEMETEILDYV
UniProt Q00403, whole entry, looked up: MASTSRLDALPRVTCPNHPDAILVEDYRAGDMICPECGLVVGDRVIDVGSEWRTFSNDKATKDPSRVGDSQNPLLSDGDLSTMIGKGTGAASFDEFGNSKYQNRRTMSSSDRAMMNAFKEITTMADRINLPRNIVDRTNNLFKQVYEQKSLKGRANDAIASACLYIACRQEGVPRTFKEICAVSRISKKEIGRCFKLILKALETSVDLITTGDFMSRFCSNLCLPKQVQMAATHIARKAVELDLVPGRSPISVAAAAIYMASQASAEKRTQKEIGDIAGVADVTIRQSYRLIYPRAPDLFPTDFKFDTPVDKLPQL
UniProt P0C0S5, whole entry, looked up: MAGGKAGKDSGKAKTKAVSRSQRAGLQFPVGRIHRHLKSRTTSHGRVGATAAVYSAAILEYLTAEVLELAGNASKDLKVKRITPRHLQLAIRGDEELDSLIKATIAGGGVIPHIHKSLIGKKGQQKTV
UniProt Q9BY41: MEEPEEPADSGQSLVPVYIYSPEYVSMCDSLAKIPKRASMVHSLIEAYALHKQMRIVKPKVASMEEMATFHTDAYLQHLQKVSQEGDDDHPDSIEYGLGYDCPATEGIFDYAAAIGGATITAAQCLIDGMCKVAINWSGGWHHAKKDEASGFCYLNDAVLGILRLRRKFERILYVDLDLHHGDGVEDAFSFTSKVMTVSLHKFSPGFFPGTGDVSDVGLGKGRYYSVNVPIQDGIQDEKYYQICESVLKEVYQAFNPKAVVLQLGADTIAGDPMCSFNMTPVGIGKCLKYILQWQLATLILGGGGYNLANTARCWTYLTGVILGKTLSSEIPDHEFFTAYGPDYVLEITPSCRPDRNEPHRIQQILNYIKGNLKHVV

Legend:
Test in all cases: log2 fold change, soluble protein after heating vs DMSO (PISA); higher = thermal stabilisation; K562 cells, 10 uM, 30 min; active = over 0.2 and 3.5 SD of the protein, either way, in both replicates (recomputed)
[1] = compound: CS(=O)(=O)c1ccc(-c2cnc(N)c(C(=O)Nc3ccccc3)n2)cc1
How it was run: (§1)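 Aliquots of K562 cells (2×10^6 cells/mL) treated with 10 μM compound for 30 min were heated for 3 min over 48°C-58°C. After pooling and extraction in PBS with 0.5% NP-40 at 4°C, soluble protein from a 21,000xg, 90 min spin was quantified by TMTpro 16plex LC-MS/MS with channel sums equalised. Thermal stability is expressed against control samples, from duplicates, as a log2 fold change.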

[2] = compound: C[C@@H](Oc1cc(-c2cnn(C3CCNCC3)c2)cnc1N)c1c(Cl)ccc(F)c1Cl [crizotinib]
How it was run: as §1

[3] = compound: C[C@@H]1COCCN1C2=NC(=NC(=C2)C3(CC3)S(=O)(=O)C)C4=C5C=CNC5=CC=C4
How it was run: as §1

[4] = compound: C[C@H](C1=CC=C(C=C1)C(=O)NC2=C3C=CNC3=NC=C2)N
How it was run: as §1

[5] = compound: Cc1cc(Nc2cc(CN3CCOCC3)c3nc(C)c(Cc4ccc(Cl)cc4F)n3n2)n[nH]1 [gandotinib]
How it was run: as §1

[6] = compound: Cc1cc(SCc2sc(-c3ccc(C(F)(F)F)cc3)nc2C)ccc1OCC(=O)O
How it was run: as §1

[7] = compound: Cc1ccc(-n2nc(C(C)(C)C)cc2NC(=O)Nc2ccc(OCCN3CCOCC3)c3ccccc23)cc1 [doramapimod]
How it was run: as §1

[8] = compound: Cc1ccc(C(=O)N(CCCN)[C@@H](c2nc3cc(Cl)ccc3c(=O)n2Cc2ccccc2)C(C)C)cc1 [ispinesib]
How it was run: as §1

[9] = compound: Cc1cc(Nc2cc(N3CCN(C)CC3)nc(Sc3ccc(NC(=O)C4CC4)cc3)n2)n[nH]1 [tozasertib]
How it was run: as §1

[10] = compound: C[C@H](Nc1ncnc2nc[nH]c12)c1cc2cccc(Cl)c2c(=O)n1-c1ccccc1 [duvelisib]
How it was run: as §1

GSR (UniProt P00390)
log2 fold change [1]: inactive: 0.009
log2 fold change [2]: inactive: 0.046
log2 fold change [3]: inactive: 0.029
log2 fold change [4]: inactive: -0.085
log2 fold change [5]: inactive: 0.002
log2 fold change [6]: inactive: -0.02
log2 fold change [7]: inactive: -0.047
log2 fold change [8]: inactive: -0.003

GSK3B isoform 2 (UniProt P49841)
log2 fold change [1]: inactive: 0.09
log2 fold change [2]: inactive: -0.053
log2 fold change [3]: inactive: -0.032
log2 fold change [4]: inactive: -0.143
log2 fold change [5]: inactive: -0.108
log2 fold change [6]: inactive: 0.015
log2 fold change [7]: inactive: -0.013
log2 fold change [8]: inactive: 0.059

H3-2 (UniProt Q5TEC6)
log2 fold change [1]: inactive: 0.207
log2 fold change [2]: inactive: -0.144
log2 fold change [5]: inactive: 0.078
log2 fold change [7]: inactive: 0.23
log2 fold change [8]: inactive: -0.212

GSTM4 (UniProt Q03013)
log2 fold change [1]: inactive: -0.181
log2 fold change [2]: inactive: -0.006
log2 fold change [3]: inactive: 0.004
log2 fold change [4]: inactive: 0.054
log2 fold change [5]: inactive: -0.028
log2 fold change [6]: inactive: 0.035
log2 fold change [7]: inactive: -0.037
log2 fold change [8]: inactive: -0.012

HDGFL2 (UniProt Q7Z4V5)
log2 fold change [1]: inactive: 0.086
log2 fold change [2]: inactive: -0.007
log2 fold change [3]: inactive: -0.052
log2 fold change [4]: inactive: -0.04
log2 fold change [5]: inactive: 0.005
log2 fold change [6]: inactive: -0.061
log2 fold change [7]: inactive: -0.045
log2 fold change [8]: inactive: 0.019

HDHD2 (UniProt Q9H0R4)
log2 fold change [1]: inactive: -0.11
log2 fold change [2]: inactive: -0.031
log2 fold change [3]: inactive: -0.01
log2 fold change [4]: inactive: 0.001
log2 fold change [5]: inactive: 0
log2 fold change [6]: inactive: -0.023
log2 fold change [7]: inactive: -0.081
log2 fold change [8]: inactive: 0.004

HCFC1 (UniProt P51610)
log2 fold change [1]: inactive: 0.077
log2 fold change [2]: inactive: -0.259
log2 fold change [5]: inactive: -0.049
log2 fold change [9]: inactive: 0.132
log2 fold change [7]: inactive: 0.027
log2 fold change [8]: inactive: -0.112

HEXB (UniProt P07686)
log2 fold change [1]: inactive: -0.009
log2 fold change [2]: active: -0.377
log2 fold change [3]: inactive: 0.058
log2 fold change [4]: inactive: -0.021
log2 fold change [5]: inactive: -0.013
log2 fold change [6]: inactive: -0.031
log2 fold change [7]: inactive: -0.007
log2 fold change [8]: inactive: -0.128

GYG1 (UniProt P46976)
log2 fold change [1]: inactive: -0.223
log2 fold change [2]: inactive: -0.037
log2 fold change [3]: inactive: -0.15
log2 fold change [4]: inactive: 0.018
log2 fold change [5]: inactive: -0.12
log2 fold change [6]: inactive: 0.09
log2 fold change [7]: inactive: 0.072
log2 fold change [8]: inactive: -0.12

GTF2E1 (UniProt P29083)
log2 fold change [1]: inactive: 0.008
log2 fold change [2]: inactive: 0.02
log2 fold change [3]: inactive: 0.118
log2 fold change [4]: inactive: -0.088
log2 fold change [5]: inactive: -0.011
log2 fold change [6]: inactive: 0.059
log2 fold change [7]: inactive: -0.03
log2 fold change [8]: inactive: -0.028

H2AFX (UniProt P16104)
log2 fold change [1]: inactive: -0.09
log2 fold change [2]: inactive: -0.096
log2 fold change [3]: inactive: -0.39
log2 fold change [4]: inactive: 0.479
log2 fold change [5]: inactive: 0.087
log2 fold change [6]: inactive: -0.078
log2 fold change [7]: inactive: 0.348
log2 fold change [8]: inactive: -0.222

HEATR5B (UniProt Q9P2D3)
log2 fold change [1]: inactive: 0.055
log2 fold change [2]: inactive: -0.058
log2 fold change [3]: inactive: -0.11
log2 fold change [4]: inactive: 0.103
log2 fold change [5]: inactive: -0.039
log2 fold change [6]: inactive: 0.036
log2 fold change [7]: inactive: -0.015
log2 fold change [8]: inactive: -0.021

GUK1 isoform 2 (UniProt Q16774)
log2 fold change [1]: inactive: 0.13
log2 fold change [2]: inactive: -0.007
log2 fold change [3]: inactive: 0.161
log2 fold change [4]: inactive: 0.049
log2 fold change [5]: inactive: -0.03
log2 fold change [6]: inactive: 0.102
log2 fold change [7]: inactive: -0.004
log2 fold change [8]: inactive: 0.012

GUSB (UniProt P08236)
log2 fold change [1]: inactive: 0.053
log2 fold change [2]: inactive: 0.004
log2 fold change [3]: inactive: -0.018
log2 fold change [4]: inactive: 0.063
log2 fold change [5]: inactive: 0.051
log2 fold change [6]: inactive: -0.039
log2 fold change [7]: inactive: 0.042
log2 fold change [8]: inactive: -0.03

HBQ1 (UniProt P09105)
log2 fold change [1]: inactive: -0.017
log2 fold change [2]: inactive: 0.037
log2 fold change [3]: inactive: 0.065
log2 fold change [4]: inactive: -0.148
log2 fold change [5]: inactive: -0.002
log2 fold change [6]: inactive: -0.023
log2 fold change [7]: inactive: -0.003
log2 fold change [8]: inactive: 0.092

HBZ (UniProt P02008)
log2 fold change [1]: inactive: 0.017
log2 fold change [2]: inactive: 0.09
log2 fold change [3]: inactive: 0.174
log2 fold change [4]: inactive: -0.067
log2 fold change [5]: inactive: 0.084
log2 fold change [6]: inactive: 0.014
log2 fold change [7]: inactive: -0.005
log2 fold change [8]: inactive: 0.21

HDAC2 (UniProt Q92769)
log2 fold change [1]: inactive: -0.01
log2 fold change [2]: inactive: 0.08
log2 fold change [3]: inactive: -0.02
log2 fold change [4]: inactive: -0.046
log2 fold change [5]: inactive: 0.003
log2 fold change [6]: inactive: -0.029
log2 fold change [7]: inactive: 0.011
log2 fold change [8]: inactive: 0.072

GTF2H3 (UniProt Q13889)
log2 fold change [1]: inactive: 0.061
log2 fold change [2]: inactive: 0.049
log2 fold change [3]: inactive: -0.012
log2 fold change [4]: inactive: -0.003
log2 fold change [5]: inactive: -0.012
log2 fold change [6]: inactive: -0.2
log2 fold change [7]: inactive: 0.021
log2 fold change [8]: inactive: 0.023

HEATR3 (UniProt Q7Z4Q2)
log2 fold change [1]: inactive: -0.001
log2 fold change [2]: inactive: -0.171
log2 fold change [3]: inactive: 0.094
log2 fold change [4]: inactive: 0.123
log2 fold change [5]: inactive: -0.377
log2 fold change [6]: inactive: 0.146
log2 fold change [7]: inactive: 0.011
log2 fold change [8]: inactive: -0.006

GUF1 (UniProt Q8N442)
log2 fold change [1]: inactive: 0.155
log2 fold change [2]: inactive: 0.242
log2 fold change [10]: inactive: 0.148
log2 fold change [5]: inactive: 0.069
log2 fold change [9]: inactive: -0.069
log2 fold change [6]: inactive: 0.459
log2 fold change [7]: inactive: 0.058
log2 fold change [8]: inactive: 0.126

HELZ (UniProt P42694)
log2 fold change [1]: inactive: -0.012
log2 fold change [2]: inactive: 0.375
log2 fold change [4]: inactive: 0.019
log2 fold change [10]: inactive: -0.125
log2 fold change [5]: inactive: -0.123
log2 fold change [6]: inactive: 0.048
log2 fold change [7]: inactive: -0.105
log2 fold change [8]: inactive: -0.118

GSTCD (UniProt Q8NEC7)
log2 fold change [1]: inactive: 0.083
log2 fold change [2]: inactive: -0.056
log2 fold change [3]: inactive: 0.058
log2 fold change [4]: inactive: 0.035
log2 fold change [9]: inactive: -0.143
log2 fold change [7]: inactive: 0.11
log2 fold change [8]: inactive: -0.109

HAUS5 (UniProt O94927)
log2 fold change [1]: inactive: -0.144
log2 fold change [2]: inactive: -0.118
log2 fold change [10]: inactive: -0.039
log2 fold change [5]: inactive: -0.081
log2 fold change [9]: inactive: 0.059
log2 fold change [6]: inactive: 0.105
log2 fold change [7]: inactive: 0.243
log2 fold change [8]: inactive: -0.138

GSTO1 (UniProt P78417)
log2 fold change [1]: inactive: 0.047
log2 fold change [2]: inactive: 0
log2 fold change [3]: inactive: 0.013
log2 fold change [4]: inactive: -0.072
log2 fold change [5]: inactive: -0.017
log2 fold change [6]: inactive: 0
log2 fold change [7]: inactive: -0.02
log2 fold change [8]: inactive: 0.036

GTF3C5 isoform 3 (UniProt Q9Y5Q8)
log2 fold change [1]: inactive: 0.01
log2 fold change [2]: inactive: 0.17
log2 fold change [3]: inactive: 0.016
log2 fold change [4]: inactive: 0.158
log2 fold change [5]: inactive: 0.043
log2 fold change [6]: inactive: 0.034
log2 fold change [7]: inactive: 0.095
log2 fold change [8]: inactive: -0.248

GTF2B (UniProt Q00403)
log2 fold change [1]: inactive: -0.007
log2 fold change [2]: inactive: -0.044
log2 fold change [3]: inactive: 0.115
log2 fold change [4]: inactive: 0.001
log2 fold change [5]: inactive: -0.146
log2 fold change [6]: inactive: 0.127
log2 fold change [7]: inactive: -0.044
log2 fold change [8]: inactive: -0.091

HECTD1 (UniProt Q9ULT8)
log2 fold change [1]: inactive: -0.034
log2 fold change [2]: inactive: 0.084
log2 fold change [3]: inactive: 0.129
log2 fold change [4]: inactive: 0.072
log2 fold change [5]: inactive: -0.062
log2 fold change [6]: inactive: 0.06
log2 fold change [7]: inactive: -0.062
log2 fold change [8]: inactive: -0.126

H2AZ1 (UniProt P0C0S5)
log2 fold change [1]: inactive: -0.027
log2 fold change [2]: inactive: -0.062
log2 fold change [3]: inactive: -0.47
log2 fold change [4]: inactive: 0.345
log2 fold change [5]: inactive: -0.006
log2 fold change [6]: inactive: -0.084
log2 fold change [7]: inactive: 0.178
log2 fold change [8]: inactive: -0.147

HDAC8 (UniProt Q9BY41)
log2 fold change [3]: inactive: -0.162

HEXIM2 (UniProt Q96MH2)
log2 fold change [2]: inactive: 0.007
log2 fold change [3]: inactive: -0.141
log2 fold change [5]: inactive: -0.009
log2 fold change [7]: inactive: 0.039

GSTM3 (UniProt P21266)
log2 fold change [1]: inactive: -0.138
log2 fold change [3]: inactive: 0.018
log2 fold change [4]: inactive: -0.071
log2 fold change [10]: inactive: -0.001
log2 fold change [5]: inactive: 0.007
log2 fold change [9]: inactive: -0.033
log2 fold change [6]: inactive: 0.08

GTF3C3 (UniProt Q9Y5Q9)
log2 fold change [2]: inactive: 0.265
log2 fold change [10]: inactive: -0.538
log2 fold change [5]: inactive: -0.067
log2 fold change [9]: inactive: -0.407
log2 fold change [6]: inactive: 0.239
log2 fold change [7]: inactive: 0.065
